Measured values from article PMC7246612, “The In Vitro Non-Tetramerizing ZapA^I83E Mutant Is Unable to Recruit ZapB to the Division Plane In Vivo in Escherichia coli” (International Journal of Molecular Sciences, 2020).
Numbering of substitutions follows the chain as printed. Numbers in names are those of the source. No constants are given. Whether binding was seen depends on the method and setting. Binding seen in cells or lysates may run through a third protein. Some results given as binding are weak or reduced against the parent protein; the word gives no strength. Sequences can lack the tags named with a protein. Each block holds one binder with its values, some of them ahead of it.

Chains of the proteins cited; added tags and fusions are not shown.
UniProt P0A9A6: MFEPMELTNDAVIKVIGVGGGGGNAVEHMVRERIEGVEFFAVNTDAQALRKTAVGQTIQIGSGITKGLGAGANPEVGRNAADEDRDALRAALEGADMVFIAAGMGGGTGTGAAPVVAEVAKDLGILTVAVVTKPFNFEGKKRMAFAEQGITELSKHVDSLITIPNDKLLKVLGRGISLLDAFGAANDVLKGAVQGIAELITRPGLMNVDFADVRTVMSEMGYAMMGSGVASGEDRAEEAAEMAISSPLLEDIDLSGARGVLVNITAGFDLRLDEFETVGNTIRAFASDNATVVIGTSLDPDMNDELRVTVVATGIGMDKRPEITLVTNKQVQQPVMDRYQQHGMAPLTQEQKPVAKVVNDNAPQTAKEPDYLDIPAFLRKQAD

Experiments:
[1] = biological target: T1, mKO–PBP1a (inner membrane protein PBP1a fused to mKO) (UniProt P02918); assay: FRET or BRET; in vivo FRET in E. coli TB28 ∆zapA cells; mKO fusion (donor) and mCh fusion (acceptor) expressed from plasmids; energy transfer efficiency (EfA) by spectral unmixing
T1 sequence: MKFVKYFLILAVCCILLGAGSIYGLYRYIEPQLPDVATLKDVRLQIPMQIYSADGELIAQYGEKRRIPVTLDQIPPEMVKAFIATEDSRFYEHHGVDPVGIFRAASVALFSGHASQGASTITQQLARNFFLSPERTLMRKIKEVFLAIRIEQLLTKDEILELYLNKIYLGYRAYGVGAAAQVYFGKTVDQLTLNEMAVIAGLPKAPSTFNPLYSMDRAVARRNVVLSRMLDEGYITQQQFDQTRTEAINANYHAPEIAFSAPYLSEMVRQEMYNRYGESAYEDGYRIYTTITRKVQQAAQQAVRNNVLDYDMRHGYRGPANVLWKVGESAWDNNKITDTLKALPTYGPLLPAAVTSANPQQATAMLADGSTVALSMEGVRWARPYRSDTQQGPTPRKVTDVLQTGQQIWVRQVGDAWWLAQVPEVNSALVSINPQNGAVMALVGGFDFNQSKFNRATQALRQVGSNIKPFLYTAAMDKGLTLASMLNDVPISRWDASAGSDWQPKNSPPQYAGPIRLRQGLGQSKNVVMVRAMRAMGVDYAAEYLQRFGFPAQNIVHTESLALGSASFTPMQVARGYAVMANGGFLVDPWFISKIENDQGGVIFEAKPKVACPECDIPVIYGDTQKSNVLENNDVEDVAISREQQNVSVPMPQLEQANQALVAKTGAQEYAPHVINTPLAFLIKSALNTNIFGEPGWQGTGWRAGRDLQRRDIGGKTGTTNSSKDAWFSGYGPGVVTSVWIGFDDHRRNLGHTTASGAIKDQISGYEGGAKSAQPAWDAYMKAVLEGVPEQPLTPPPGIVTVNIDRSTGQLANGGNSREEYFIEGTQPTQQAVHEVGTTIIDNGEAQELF

[2] = biological target: mKO–FtsZ (filamenting temperature-sensitive Z fused to mKO) (Escherichia coli) (UniProt P0A9A6); assay: as above

binding [1]: no binding
B1: mCh–PBP1b (PBP1b fused to mCh) (natural protein, UniProt P02919 1-844, looked up)
chain: MAGNDREPIGRKGKPTRPVKQKVSRRRYEDDDDYDDYDDYEDEEPMPRKGKGKGKGRKPRGKRGWLWLLLKLAIVFAVLIAIYGVYLDQKIRSRIDGKVWQLPAAVYGRMVNLEPDMTISKNEMVKLLEATQYRQVSKMTRPGEFTVQANSIEMIRRPFDFPDSKEGQVRARLTFDGDHLATIVNMENNRQFGFFRLDPRLITMISSPNGEQRLFVPRSGFPDLLVDTLLATEDRHFYEHDGISLYSIGRAVLANLTAGRTVQGASTLTQQLVKNLFLSSERSYWRKANEAYMALIMDARYSKDRILELYMNEVYLGQSGDNEIRGFPLASLYYFGRPVEELSLDQQALLVGMVKGASIYNPWRNPKLALERRNLVLRLLQQQQIIDQELYDMLSARPLGVQPRGGVISPQPAFMQLVRQELQAKLGDKVKDLSGVKIFTTFDSVAQDAAEKAAVEGIPALKKQRKLSDLETAIVVVDRFSGEVRAMVGGSEPQFAGYNRAMQARRSIGSLAKPATYLTALSQPKIYRLNTWIADAPIALRQPNGQVWSPQNDDRRYSESGRVMLVDALTRSMNVPTVNLGMALGLPAVTETWIKLGVPKDQLHPVPAMLLGALNLTPIEVAQAFQTIASGGNRAPLSALRSVIAEDGKVLYQSFPQAERAVPAQAAYLTLWTMQQVVQRGTGRQLGAKYPNLHLAGKTGTTNNNVDTWFAGIDGSTVTITWVGRDNNQPTKLYGASGAMSIYQRYLANQTPTPLNLVPPEDIADMGVDYDGNFVCSGGMRILPVWTSDPQSLCQQSEMQQQPSGNPFDQSSQPQQQPQQQPAQQEQKDSDGVAGWIKDMFGSN
notes: PBP1b; Negative control in the FRET assay; also called pBB008; pTHV–mCh–PBP1b; source: E. coli TB28 ∆zapA, expressed from plasmid pBB008, in living cells; not shown: mCh, N-terminal, kept

binding [1]: no binding
B2: mCh–ZapA (wild-type Z-associated protein A fused to mCh) (natural protein, Escherichia coli, UniProt P0ADS2 1-109, looked up)
chain: MSAQPVDIQIFGRSLRVNCPPDQRDALNQAADDLNQRLQDLKERTRVTNTEQLVFIAALNISYELAQEKAKTRDYAASMEQRIRMLQQTIEQALLEQGRITEKTNQNFE
notes: Z-associated protein A (ZapA), Escherichia coli; also called mCh–ZapA^WT; ZapA^WT; source: E. coli TB28 ∆zapA or WT strain, expressed from plasmid pSAV077, in living cells; not shown: mCh, N-terminal, kept

binding [2]: binds
binding [1]: no binding
B3: mCh–ZapA^I83E (in vitro non-tetramerizing ZapA mutant fused to mCh) (natural protein, Escherichia coli, UniProt P0ADS2 1-109, looked up)
chain: B2 chain with I83E
notes: Z-associated protein A (ZapA), Escherichia coli, with I83E; made by exchanging zapA in pSAV077 with zapA^I83E from pRP071; also called pNM137; pTHV–mCh–ZapA^I83E; source: E. coli TB28 ∆zapA or WT strain, expressed from plasmid pNM137, in living cells; not shown: mCh, N-terminal, kept
